Data as given in PMC10233829 (ACS Omega, 2023).

Test system: PC3 cells
Test: MTT assay, cytotoxic activity
Assay type: cell-based, human
Conditions: HaCaT vs PC3
Experimental: Metastatic prostate cancer (PC3) and human immortal keratinocyte (HaCaT) cell lines were purchased from the American Type Culture Collection (ATCC, Rockville, MD, USA) and cultured in MEM (minimal essential medium, Thermo Sci, USA), RPMI 1640 (Roswell Park Memorial Institute, Biowest SAS, France), and DMEM (Dulbecco’s Modified Eagle’s Medium, Biowest SAS, France). Cells were seeded in 6 mL medium in a tissue culture flask (50 mL) in a 37 °C/5% CO2 humidified incubator. […] MTT analysis was performed according to a previous study.[59] Untreated cells were used as controls. Cell absorbance results were inserted into the formula for the relative MTT level (%). It allows to calculate the viability of cells under the influence of the tested compounds. Cell viability was expressed as the percentage of MTT reduction in cells treated with tested compounds compared to the control sample. The relative MTT level was calculated using the formula [100%] = A/B × 100% where A—the test sample absorbance and B—the control sample absorbance.

C=CC(=O)N1CCN(c2cc3c(cc2F)c(=O)c(C(=O)O)cn3C2CC2)CC1 [Compound 1, 7-(4-Acryloyl-piperazin-1-yl)-1-cyclopropyl-6-fluoro-4-oxo-1,4-dihydro-quinoline-3-carboxylic Acid]
SI (IC50 normal cell line/IC50 cancer cell line): 1.4

O=C(O)c1cn(C2CC2)c2cc(N3CCN(C(=O)C4CC4)CC3)c(F)cc2c1=O [Compound 2, 7-(4-Cyclopropanecarbonyl-piperazin-1-yl)-1-cyclopropyl-6-fluoro-4-oxo-1,4-dihydro-quinoline-3-carboxylic Acid]
SI (IC50 normal cell line/IC50 cancer cell line): 0.9

O=C(O)c1cn(C2CC2)c2cc(N3CCN(C(=O)CCl)CC3)c(F)cc2c1=O [Compound 3, 7-[4-(2-Chloroacetyl)-piperazin-1-yl]-1-cyclopropyl-6-fluoro-4-oxo-1,4-dihydro-quinoline-3-carboxylic Acid]
SI (IC50 normal cell line/IC50 cancer cell line): 17.6

O=C(O)c1cn(C2CC2)c2cc(N3CCN(C(=O)CCCl)CC3)c(F)cc2c1=O [Compound 4, 7-[4-(3-Chloropropionyl)-piperazin-1-yl]-1-cyclopropyl-6-fluoro-4-oxo-1,4-dihydro-quinoline-3-carboxylic Acid]
SI (IC50 normal cell line/IC50 cancer cell line): 1.9

O=C(O)c1cn(C2CC2)c2cc(N3CCN(C(=O)CCCCl)CC3)c(F)cc2c1=O [Compound 5, 7-[4-(4-Chlorobutyryl)-piperazin-1-yl]-1-cyclopropyl-6-fluoro-4-oxo-1,4-dihydro-quinoline-3-carboxylic Acid]
SI (IC50 normal cell line/IC50 cancer cell line): 1.0

O=C(O)c1cn(C2CC2)c2cc(N3CCN(C(=O)CCCCCCl)CC3)c(F)cc2c1=O [Compound 7, 7-[4-(6-Chlorohexanoyl)-piperazin-1-yl]-1-cyclopropyl-6-fluoro-4-oxo-1,4-dihydro-quinoline-3-carboxylic Acid]
SI (IC50 normal cell line/IC50 cancer cell line): 1

O=C(O)c1cn(C2CC2)c2cc(N3CCN(C(=O)CBr)CC3)c(F)cc2c1=O [Compound 8, 7-[4-(2-Bromoacetyl)-piperazin-1-yl]-1-cyclopropyl-6-fluoro-4-oxo-1,4-dihydro-quinoline-3-carboxylic Acid]
SI (IC50 normal cell line/IC50 cancer cell line): 1.1

O=C(O)c1cn(C2CC2)c2cc(N3CCN(C(=O)CCBr)CC3)c(F)cc2c1=O [Compound 9, 7-[4-(3-Bromopropionyl)-piperazin-1-yl]-1-cyclopropyl-6-fluoro-4-oxo-1,4-dihydro-quinoline-3-carboxylic Acid]
SI (IC50 normal cell line/IC50 cancer cell line): 1.4

O=C(O)c1cn(C2CC2)c2cc(N3CCN(C(=O)CCCBr)CC3)c(F)cc2c1=O [Compound 10, 7-[4-(4-Bromobutyryl)-piperazin-1-yl]-1-cyclopropyl-6-fluoro-4-oxo-1,4-dihydro-quinoline-3-carboxylic Acid]
SI (IC50 normal cell line/IC50 cancer cell line): 1.1

O=C(O)c1cn(C2CC2)c2cc(N3CCN(C(=O)CCCCBr)CC3)c(F)cc2c1=O [Compound 11, 7-[4-(5-Bromopentanoyl)-piperazin-1-yl]-1-cyclopropyl-6-fluoro-4-oxo-1,4-dihydro-quinoline-3-carboxylic Acid]
SI (IC50 normal cell line/IC50 cancer cell line): 0.9

O=C(O)c1cn(C2CC2)c2cc(N3CCN(C(=O)CCCCCCCCCCBr)CC3)c(F)cc2c1=O [Compound 13, 7-[4-(11-Bromoundekanoyl)-piperazin-1-yl]-1-cyclopropyl-6-fluoro-4-oxo-1,4-dihydro-quinoline-3-carboxylic Acid]
SI (IC50 normal cell line/IC50 cancer cell line): 2.7

O=C(O)c1cn(C2CC2)c2cc(N3CCN(C(=O)CC(F)(F)F)CC3)c(F)cc2c1=O [Compound 14, 7-[4-(3,3,3-Trifluoropropionyl)-piperazin-1-yl]-1-cyclopropyl-6-fluoro-4-oxo-1,4-dihydro-quinoline-3-carboxylic Acid]
SI (IC50 normal cell line/IC50 cancer cell line): 1.6

O=C(O)c1cn(C2CC2)c2cc(N3CCN(C(=O)CCC(F)(F)F)CC3)c(F)cc2c1=O [Compound 15, 7-[4-(4,4,4-Trifluorobutyryl)-piperazin-1-yl]-1-cyclopropyl-6-fluoro-4-oxo-1,4-dihydro-quinoline-3-carboxylic Acid]
SI (IC50 normal cell line/IC50 cancer cell line): 5.4

O=C(O)c1cn(C2CC2)c2cc(N3CCN(C(=O)CCCC(F)(F)F)CC3)c(F)cc2c1=O [Compound 16, 7-[4-(5,5,5-Trifluoropentanoyl)-piperazin-1-yl]-1-cyclopropyl-6-fluoro-4-oxo-1,4-dihydro-quinoline-3-carboxylic Acid]
SI (IC50 normal cell line/IC50 cancer cell line): 1.5

O=C(O)c1cn(C2CC2)c2cc(N3CCN(CC(=O)N4CCN(c5cc6c(cc5F)c(=O)c(C(=O)O)cn6C5CC5)CC4)CC3)c(F)cc2c1=O [Compound 17, CP–Acetyl–CP Dimer]
SI (IC50 normal cell line/IC50 cancer cell line): 0.5

O=C(O)c1cn(C2CC2)c2cc(N3CCN(CCCC(=O)N4CCN(c5cc6c(cc5F)c(=O)c(C(=O)O)cn6C5CC5)CC4)CC3)c(F)cc2c1=O [Compound 18, CP–Butyryl–CP Dimer]
SI (IC50 normal cell line/IC50 cancer cell line): 0.9

O=C(O)c1cn(C2CC2)c2cc(N3CCN(CCCCC(=O)N4CCN(c5cc6c(cc5F)c(=O)c(C(=O)O)cn6C5CC5)CC4)CC3)c(F)cc2c1=O [Compound 19, CP–Pentanoyl–CP Dimer]
SI (IC50 normal cell line/IC50 cancer cell line): 1.0

O=C(O)c1cn(C2CC2)c2cc(N3CCN(CCCCCC(=O)N4CCN(c5cc6c(cc5F)c(=O)c(C(=O)O)cn6C5CC5)CC4)CC3)c(F)cc2c1=O [Compound 20, CP–Hexanoyl–CP Dimer]
SI (IC50 normal cell line/IC50 cancer cell line): 1.3

O=C(O)c1cn(C2CC2)c2cc(N3CCN(CCCCCCCCCCC(=O)N4CCN(c5cc6c(cc5F)c(=O)c(C(=O)O)cn6C5CC5)CC4)CC3)c(F)cc2c1=O [Compound 21, CP–Undecanoyl–CP Dimer]
SI (IC50 normal cell line/IC50 cancer cell line): 15.2
